# Data: the supplement of paper PMC10060354, “Discovery of a small molecule ligand of FRS2 that inhibits invasion and tumor growth” (Cellular Oncology, 2022)
# Sequences of proteins named here, by UniProt entry; tags and fusion partners are left off. A change or cut given only in a name is not applied to a line headed by its entry.
# UniProt P83876: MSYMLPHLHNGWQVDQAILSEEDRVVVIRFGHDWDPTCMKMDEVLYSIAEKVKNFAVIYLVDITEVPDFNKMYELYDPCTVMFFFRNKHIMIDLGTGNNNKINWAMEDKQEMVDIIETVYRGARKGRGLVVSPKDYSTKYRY
# UniProt Q9NZB2: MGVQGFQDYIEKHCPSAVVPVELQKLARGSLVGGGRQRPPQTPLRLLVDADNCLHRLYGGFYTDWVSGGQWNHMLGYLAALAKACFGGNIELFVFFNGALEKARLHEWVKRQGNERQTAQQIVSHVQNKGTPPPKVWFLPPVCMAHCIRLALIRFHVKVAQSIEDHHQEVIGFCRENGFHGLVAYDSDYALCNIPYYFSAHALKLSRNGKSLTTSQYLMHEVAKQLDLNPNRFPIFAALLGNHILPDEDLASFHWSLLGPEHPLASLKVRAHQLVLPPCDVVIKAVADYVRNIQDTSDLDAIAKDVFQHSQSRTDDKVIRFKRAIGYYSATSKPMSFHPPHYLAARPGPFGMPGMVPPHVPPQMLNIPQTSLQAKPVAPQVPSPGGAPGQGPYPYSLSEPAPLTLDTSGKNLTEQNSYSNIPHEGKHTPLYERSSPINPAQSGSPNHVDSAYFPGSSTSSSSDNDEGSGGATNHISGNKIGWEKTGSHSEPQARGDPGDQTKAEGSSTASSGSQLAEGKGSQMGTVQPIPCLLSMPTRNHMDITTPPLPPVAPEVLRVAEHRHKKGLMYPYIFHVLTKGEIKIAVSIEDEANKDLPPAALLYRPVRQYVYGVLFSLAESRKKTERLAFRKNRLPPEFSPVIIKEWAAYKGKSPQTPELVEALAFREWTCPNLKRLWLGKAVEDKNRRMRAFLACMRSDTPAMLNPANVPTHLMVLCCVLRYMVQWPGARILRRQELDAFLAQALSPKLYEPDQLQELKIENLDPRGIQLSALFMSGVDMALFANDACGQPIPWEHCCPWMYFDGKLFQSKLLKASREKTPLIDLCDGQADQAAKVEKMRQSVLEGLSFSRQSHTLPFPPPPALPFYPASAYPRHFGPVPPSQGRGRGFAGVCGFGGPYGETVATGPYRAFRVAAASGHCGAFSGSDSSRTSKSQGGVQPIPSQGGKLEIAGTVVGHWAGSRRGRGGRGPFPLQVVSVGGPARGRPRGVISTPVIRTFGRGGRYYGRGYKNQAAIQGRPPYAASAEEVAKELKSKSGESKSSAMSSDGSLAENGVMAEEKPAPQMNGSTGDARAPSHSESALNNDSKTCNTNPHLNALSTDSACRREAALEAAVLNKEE
# UniProt P54278: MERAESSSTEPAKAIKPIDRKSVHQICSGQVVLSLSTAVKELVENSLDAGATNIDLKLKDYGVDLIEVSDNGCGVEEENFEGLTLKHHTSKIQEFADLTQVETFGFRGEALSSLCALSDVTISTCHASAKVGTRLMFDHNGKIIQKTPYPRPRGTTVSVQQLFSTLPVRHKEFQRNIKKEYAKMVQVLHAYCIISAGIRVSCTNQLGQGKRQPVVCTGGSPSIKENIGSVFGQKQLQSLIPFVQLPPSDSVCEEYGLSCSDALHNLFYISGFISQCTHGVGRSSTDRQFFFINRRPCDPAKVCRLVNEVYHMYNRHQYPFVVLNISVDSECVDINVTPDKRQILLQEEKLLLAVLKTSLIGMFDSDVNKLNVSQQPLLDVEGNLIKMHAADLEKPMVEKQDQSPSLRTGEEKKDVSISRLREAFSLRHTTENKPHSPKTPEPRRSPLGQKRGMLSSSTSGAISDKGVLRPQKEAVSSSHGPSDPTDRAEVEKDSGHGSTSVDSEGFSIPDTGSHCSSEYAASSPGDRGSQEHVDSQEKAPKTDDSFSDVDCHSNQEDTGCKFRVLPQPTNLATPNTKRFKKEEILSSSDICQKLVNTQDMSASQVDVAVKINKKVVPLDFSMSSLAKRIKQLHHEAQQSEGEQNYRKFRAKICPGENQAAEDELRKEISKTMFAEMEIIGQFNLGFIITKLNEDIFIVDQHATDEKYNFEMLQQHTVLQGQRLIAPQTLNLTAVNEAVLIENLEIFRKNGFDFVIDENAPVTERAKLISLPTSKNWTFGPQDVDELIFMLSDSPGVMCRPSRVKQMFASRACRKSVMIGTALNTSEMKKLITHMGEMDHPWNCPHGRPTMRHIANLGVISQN
# UniProt Q9H4A3: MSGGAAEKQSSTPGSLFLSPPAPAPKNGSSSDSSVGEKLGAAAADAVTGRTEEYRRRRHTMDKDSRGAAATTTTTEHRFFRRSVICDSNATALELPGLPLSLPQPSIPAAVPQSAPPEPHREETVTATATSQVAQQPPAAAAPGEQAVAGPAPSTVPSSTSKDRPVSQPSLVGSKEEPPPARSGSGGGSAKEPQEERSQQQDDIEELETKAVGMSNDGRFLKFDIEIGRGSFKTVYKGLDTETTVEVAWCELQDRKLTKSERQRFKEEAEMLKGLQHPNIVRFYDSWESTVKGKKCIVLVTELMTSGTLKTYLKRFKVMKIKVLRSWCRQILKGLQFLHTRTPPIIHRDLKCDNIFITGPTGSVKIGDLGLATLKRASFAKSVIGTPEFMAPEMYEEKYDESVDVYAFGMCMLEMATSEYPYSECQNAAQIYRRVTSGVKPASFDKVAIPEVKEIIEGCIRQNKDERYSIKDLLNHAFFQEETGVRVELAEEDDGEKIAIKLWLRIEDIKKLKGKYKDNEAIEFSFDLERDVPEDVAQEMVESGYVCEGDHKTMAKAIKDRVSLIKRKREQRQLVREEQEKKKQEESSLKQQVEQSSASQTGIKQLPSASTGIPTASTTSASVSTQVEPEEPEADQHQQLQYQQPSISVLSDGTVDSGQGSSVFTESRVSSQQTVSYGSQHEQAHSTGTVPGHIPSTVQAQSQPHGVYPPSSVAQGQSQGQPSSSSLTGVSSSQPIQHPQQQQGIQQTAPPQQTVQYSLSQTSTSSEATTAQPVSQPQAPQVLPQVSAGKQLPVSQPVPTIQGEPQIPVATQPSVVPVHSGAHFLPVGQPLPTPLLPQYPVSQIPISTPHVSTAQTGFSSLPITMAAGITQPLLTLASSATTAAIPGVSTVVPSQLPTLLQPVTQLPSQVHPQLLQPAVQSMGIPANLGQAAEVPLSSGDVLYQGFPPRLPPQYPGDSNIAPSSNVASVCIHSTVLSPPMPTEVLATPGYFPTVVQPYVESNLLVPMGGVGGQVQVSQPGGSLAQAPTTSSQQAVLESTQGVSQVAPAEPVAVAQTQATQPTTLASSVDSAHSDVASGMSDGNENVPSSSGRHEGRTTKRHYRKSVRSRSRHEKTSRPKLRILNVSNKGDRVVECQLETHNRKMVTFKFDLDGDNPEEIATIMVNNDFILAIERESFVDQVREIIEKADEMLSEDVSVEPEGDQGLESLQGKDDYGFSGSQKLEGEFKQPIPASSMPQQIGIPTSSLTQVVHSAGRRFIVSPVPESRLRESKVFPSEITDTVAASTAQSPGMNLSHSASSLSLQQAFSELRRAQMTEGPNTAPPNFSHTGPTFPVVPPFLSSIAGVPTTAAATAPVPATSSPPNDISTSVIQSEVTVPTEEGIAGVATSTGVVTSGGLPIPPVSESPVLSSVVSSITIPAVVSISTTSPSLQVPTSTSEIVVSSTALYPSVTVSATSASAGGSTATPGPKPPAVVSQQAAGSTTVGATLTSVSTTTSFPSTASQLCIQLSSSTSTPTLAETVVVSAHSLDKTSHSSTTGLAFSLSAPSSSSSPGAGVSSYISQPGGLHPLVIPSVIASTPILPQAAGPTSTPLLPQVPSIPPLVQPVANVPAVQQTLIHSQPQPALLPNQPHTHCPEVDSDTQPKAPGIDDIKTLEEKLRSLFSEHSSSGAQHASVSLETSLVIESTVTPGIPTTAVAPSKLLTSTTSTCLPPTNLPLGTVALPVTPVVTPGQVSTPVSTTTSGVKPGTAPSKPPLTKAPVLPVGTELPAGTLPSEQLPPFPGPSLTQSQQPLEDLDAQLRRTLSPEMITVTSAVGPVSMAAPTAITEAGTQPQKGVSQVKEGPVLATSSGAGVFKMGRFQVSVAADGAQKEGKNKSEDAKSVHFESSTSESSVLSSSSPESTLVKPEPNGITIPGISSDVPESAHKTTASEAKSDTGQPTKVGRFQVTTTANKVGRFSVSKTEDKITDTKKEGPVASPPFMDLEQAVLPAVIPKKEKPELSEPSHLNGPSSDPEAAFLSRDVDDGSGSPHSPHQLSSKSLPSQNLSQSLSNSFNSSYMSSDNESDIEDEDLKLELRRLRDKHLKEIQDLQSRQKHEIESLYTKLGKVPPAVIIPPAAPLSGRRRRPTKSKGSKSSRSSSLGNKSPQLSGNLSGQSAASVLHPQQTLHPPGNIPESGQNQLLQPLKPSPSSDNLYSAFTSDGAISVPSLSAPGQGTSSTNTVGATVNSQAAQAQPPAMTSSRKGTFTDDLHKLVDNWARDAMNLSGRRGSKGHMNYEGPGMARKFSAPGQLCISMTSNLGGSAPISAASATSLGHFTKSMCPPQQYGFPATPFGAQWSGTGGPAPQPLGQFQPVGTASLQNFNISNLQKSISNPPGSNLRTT
# UniProt P26885: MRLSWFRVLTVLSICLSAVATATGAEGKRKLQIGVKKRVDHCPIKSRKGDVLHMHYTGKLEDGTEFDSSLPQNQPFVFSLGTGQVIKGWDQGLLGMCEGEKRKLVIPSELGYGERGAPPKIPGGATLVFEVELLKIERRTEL
# UniProt O60927: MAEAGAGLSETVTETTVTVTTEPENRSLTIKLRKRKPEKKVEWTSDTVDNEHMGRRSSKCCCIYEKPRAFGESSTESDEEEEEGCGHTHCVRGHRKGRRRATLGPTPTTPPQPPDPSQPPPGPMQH
# UniProt O43396: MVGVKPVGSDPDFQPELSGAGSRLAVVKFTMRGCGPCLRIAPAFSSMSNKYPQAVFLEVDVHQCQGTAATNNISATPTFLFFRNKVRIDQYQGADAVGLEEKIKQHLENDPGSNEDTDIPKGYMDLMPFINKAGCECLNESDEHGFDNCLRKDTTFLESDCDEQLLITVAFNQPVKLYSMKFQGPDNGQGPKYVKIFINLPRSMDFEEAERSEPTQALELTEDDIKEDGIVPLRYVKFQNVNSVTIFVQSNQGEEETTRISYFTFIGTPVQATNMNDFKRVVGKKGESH
# UniProt Q16854: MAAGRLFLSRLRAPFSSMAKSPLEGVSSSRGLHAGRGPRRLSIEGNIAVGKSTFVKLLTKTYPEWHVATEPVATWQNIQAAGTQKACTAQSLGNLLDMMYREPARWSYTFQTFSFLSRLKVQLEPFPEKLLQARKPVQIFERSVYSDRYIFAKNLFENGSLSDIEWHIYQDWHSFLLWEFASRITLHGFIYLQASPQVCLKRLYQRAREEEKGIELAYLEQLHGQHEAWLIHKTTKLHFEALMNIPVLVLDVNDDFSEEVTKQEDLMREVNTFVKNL
# UniProt Q96PQ5: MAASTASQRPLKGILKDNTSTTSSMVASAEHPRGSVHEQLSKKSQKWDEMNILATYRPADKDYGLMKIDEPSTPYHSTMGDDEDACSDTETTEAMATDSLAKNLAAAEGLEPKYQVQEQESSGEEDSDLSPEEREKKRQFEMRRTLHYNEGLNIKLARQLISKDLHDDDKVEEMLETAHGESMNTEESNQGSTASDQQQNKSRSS
# Single values are uncertain, as repeats are few or missing.
# Compound: [O-][N+](C(C1=C(C(O)=C2)NC(C(C=C3)=CC=C3Cl)C4C1C=CC4)=C2Cl)=O
# Assay: melting temperature shift (compound 7 minus DMSO); higher = compound stabilises the protein
# Conditions: 10 µM
# Protocol: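 Thermal proteome profiling (TMT mass spectrometry) in intact DAOY medulloblastoma cells or DAOY lysates treated with 10 µM compound 7 or DMSO, heated at 10 temperatures from 40.5 to 73.8 °C for 3 min. Melting curves were fitted with the Bioconductor TPP package, and the melting point difference between compound and vehicle is reported per protein (single curve per condition).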
# [1] = system: DAOY cell lysate, treatment time: 20 min, 4 °C
# [2] = system: intact DAOY cells, treatment time: 90 min, 37 °C
Target,melting temperature shift [1] [°C],melting temperature shift [2] [°C]
TXNL4A (UniProt P83876),-0.0965,-0.0301
GDAP2 (UniProt Q9NXN4),0.52,2.92
PEX1 (UniProt O43933),–,0.928
BAX (UniProt Q07812),2.59,–
MRPS12 (UniProt O15235),0.298,-1.32
RPL22L1 (UniProt Q6P5R6),0.604,–
RSU1 (UniProt Q15404),-0.659,0.0308
IFT74 (UniProt Q96LB3),1.61,–
UniProt P0DN79,-0.425,-3.18
SDCBP (UniProt O00560),0.0136,0.532
TTPAL (UniProt Q9BTX7),0.0607,0.341
DDX49 (UniProt Q9Y6V7),0.151,-1.11
PROSER2 (UniProt Q86WR7),-1.58,-0.653
RBM19 (UniProt Q9Y4C8),0.783,–
RPL17 (UniProt P18621),0.458,-0.673
UFD1L (UniProt Q92890),-0.119,-1.01
ANXA6 (UniProt P08133),0.0239,0.156
FAM120A (UniProt Q9NZB2),0.243,-0.0593
SH3KBP1 (UniProt Q96B97),-0.0604,0.0854
IPO9 (UniProt Q96P70),-1.63,0.567
NDUFB5 (UniProt O43674),1.26,-0.624
MLEC (UniProt Q14165),1.12,0.454
RINT1 (UniProt Q6NUQ1),-0.195,-0.955

# Part of the list above, as tab-separated lines.
Target	melting temperature shift [1] [°C]	melting temperature shift [2] [°C]
PEX1 (UniProt O43933)	–	0.928
TTPAL (UniProt Q9BTX7)	0.0607	0.341
FAM120A (UniProt Q9NZB2)	0.243	-0.0593
SH3KBP1 (UniProt Q96B97)	-0.0604	0.0854
IPO9 (UniProt Q96P70)	-1.63	0.567

# Next part

Target,melting temperature shift [1] [°C],melting temperature shift [2] [°C]
UniProt A8K0Z3,–,0.47
PIK3C2A (UniProt O00443),-0.412,-1.44
ASAP1 (UniProt Q9ULH1),0.401,-0.0409
MRPS31 (UniProt Q92665),-0.329,-0.726
MRPL15 (UniProt Q9P015),0.834,-1.16
DENND4C (UniProt Q5VZ89),0.849,–
PMS2 (UniProt P54278),–,-0.422
GRPEL2 (UniProt Q8TAA5),-0.947,-0.709
DNAJA1 (UniProt P31689),-0.0227,0.338
MTX1 (UniProt Q13505),1.28,-0.0211
PIP4K2B (UniProt P78356),-1.3,0.445
UniProt Q8N9R8,0.347,–
HSD17B11 (UniProt Q8NBQ5),1.15,-1.01
HK1 (UniProt P19367),0.134,-0.624
MAPK14 (UniProt Q16539),-0.685,-1.01
WNK1 (UniProt Q9H4A3),-0.66,-0.848
FUBP1 (UniProt Q96AE4),0.218,-0.127
CMBL (UniProt Q96DG6),-1.51,-0.21
UniProt Q8N442,-0.108,–
FKBP2 (UniProt P26885),-0.958,0.165
UniProt Q86Y97,0.341,–
P86790 (UniProt P86791),-1.15,-0.043
UniProt P05090,1.83,–

Target,melting temperature shift [1] [°C],melting temperature shift [2] [°C]
PRKAG1 (UniProt P54619),-0.0805,-0.886
SIL1 (UniProt Q9H173),0.451,0.462
UniProt Q9NUK0,–,-0.214
GIPC1 (UniProt O14908),0.53,0.634
TPD52L1 (UniProt Q16890),-0.128,–
CEP85 (UniProt Q6P2H3),1.11,0.29
MARK3 (UniProt P27448),1.03,0.578
RPL27A (UniProt P46776),1.35,-0.293
PPP1R11 (UniProt O60927),-1.23,–
NAA50 (UniProt Q9GZZ1),-0.345,-0.588
APLP2 (UniProt Q06481),1.56,–
UniProt B5ME19,–,-0.185
MAPRE3 (UniProt Q9UPY8),-0.843,-0.0617
GGA1 (UniProt Q9UJY5),-0.851,0.429
GNPDA2 (UniProt Q8TDQ7),-1.11,3.07
VPS25 (UniProt Q9BRG1),-0.714,-0.47
SELK (UniProt Q9Y6D0),2.82,1.42
RASA1 (UniProt P20936),-0.765,-0.22
NDUFAF4 (UniProt Q9P032),1.33,0.144
CAT (UniProt P04040),1.06,-0.412
UniProt Q58FF3,–,0.769
UniProt P21127,-0.284,2.03
UniProt Q53ET0,-0.605,2.9

Target,melting temperature shift [1] [°C],melting temperature shift [2] [°C]
UAP1L1 (UniProt Q3KQV9),-0.468,-0.00274
TXNL1 (UniProt O43396),-0.249,0.0159
UniProt A6NHC0,–,-1.71
RPS3 (UniProt P23396),-1.2,-0.831
CHAC2 (UniProt Q8WUX2),-0.599,0.293
UniProt Q16854,–,-0.553
ARHGEF18 (UniProt Q6ZSZ5),-0.138,0.186
NUP93 (UniProt Q8N1F7),-0.0336,-0.396
MRPL46 (UniProt Q9H2W6),-4.3,-0.629
NKRF (UniProt O15226),1.1,1.85
LIN54 (UniProt Q6MZP7),-3.97,–
UniProt Q96PQ5,–,-0.38
POLA1 (UniProt P09884),0.0144,0.589
UniProt Q9P2L0,0.817,–
PLK1 (UniProt P53350),-0.142,0.78
TMEM63A (UniProt O94886),–,-1.36
POLA2 (UniProt Q14181),2.13,-1.33
EPHA7 (UniProt Q15375),–,-0.951
DIABLO (UniProt Q9NR28),0.188,-1.03
SLC25A1 (UniProt P53007),0.792,–
